Experimental data published in article doi:10.1101/2025.10.24.684417.
These are yes or no findings as the source states them, for the method shown. Binding seen in cells or lysates may run through a third protein. Some entries that bind do so weakly or less than the wild type.

The chains behind the UniProt entries cited, without tags or fusion partners.
UniProt Q13761: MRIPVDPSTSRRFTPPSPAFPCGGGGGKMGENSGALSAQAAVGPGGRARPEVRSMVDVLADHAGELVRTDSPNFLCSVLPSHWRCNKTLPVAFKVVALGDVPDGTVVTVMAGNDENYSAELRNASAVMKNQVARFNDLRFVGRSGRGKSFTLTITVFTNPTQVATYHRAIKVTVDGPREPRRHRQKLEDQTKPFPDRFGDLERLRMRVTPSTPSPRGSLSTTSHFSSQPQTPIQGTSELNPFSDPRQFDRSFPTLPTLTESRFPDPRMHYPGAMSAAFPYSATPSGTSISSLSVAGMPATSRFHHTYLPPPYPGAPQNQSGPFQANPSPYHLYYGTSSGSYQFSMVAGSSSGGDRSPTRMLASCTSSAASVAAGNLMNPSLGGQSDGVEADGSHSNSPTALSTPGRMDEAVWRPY

Molecular target: RUNX3 (as detected in the proximity ligation assays) (UniProt Q13761)
Assay: proximity ligation

binding: binds
B1: TLE5 (protein, UniProt Q08117 1-197)
chain: MMFPQSRHSGSSHLPQQLKFTTSDSCDRIKDEFQLLQAQYHSLKLECDKLASEKSEMQRHYVMYYEMSYGLNIEMHKQAEIVKRLNGICAQVLPYLSQEHQQQVLGAIERAKQVTAPELNSIIRQQLQAHQLSQLQALALPLTPLPVGLQPPSLPAVSAGTGLLSLSALGSQAHLSKEDKNGHDGDTHQEDDGEKSD
